According to the supplement of paper PMC9254222:
Structures can show the parent of a compound that is named as a salt. In all, about 1,100 compounds were measured (“Renilla luciferase signal (cell health) relative to plate median”: median about 0.97, highest 2% from about 1.6 on). Only a part is listed here, and it is no random draw.

Tested on: HEK293T (UBE3A T485A transfected, BAR Wnt reporter)
Assay: Renilla luciferase signal (cell health) relative to plate median (fold (linear ratio)); higher = higher Renilla signal
Conditions: 24 h
Summary of the method: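 Chemicals at 0.01–100 uM were left on transfected HEK293T cells for 24 h, after a four-hour wait following transfection. The cells held a BAR firefly luciferase Wnt reporter, TK-Renilla and an expression plasmid. Wnt activity, as the firefly/Renilla ratio from a Dual-Glo luciferase readout, and cell health, as raw Renilla, were median-centred within each plate. Results average four biological replicates.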

SMILES	Renilla luciferase signal (concentration: 0.1 uM)	Renilla luciferase signal (concentration: 1 uM)	Renilla luciferase signal (concentration: 10 uM)	Renilla luciferase signal (concentration: 100 uM)	Renilla luciferase signal (concentration: 0.01 uM)
CCCCOC(=O)CC(CC(=O)OCCCC)(OC(C)=O)C(=O)OCCCC [Acetyl tributyl citrate]	1.06	0.871	0.945	1.23	
CCOC(=O)NCCOc1ccc(Oc2ccccc2)cc1 [Fenoxycarb]	0.74	0.839	0.924	0.226	0.711
CC#C[C@]1(O)CC[C@H]2[C@@H]3CCC4=CC(=O)CCC4=C3[C@@H](c3ccc(N(C)C)cc3)C[C@@]21C [Mifepristone]	0.953	0.805	0.722	0.151	
O=C(O)c1cc(/N=N/c2ccc(S(=O)(=O)Nc3ccccn3)cc2)ccc1O [Sulfasalazine]	0.788	0.885	0.691	0.277	
COC(C)COC(C)COC(C)CO (centres undefined) [Tripropylene glycol monomethyl ether]	0.985	1.09	1.1	1.27	
COC(=O)c1c(Cl)c(Cl)c(C(=O)OC)c(Cl)c1Cl [Chlorthal-dimethyl]	0.742	0.816	0.771	0.813	
CCCCCCCCCCCCc1ccccc1 [Dodecylbenzene]	0.831	0.804	0.858	0.903	
CN1CCC[C@H]1c1cccnc1 [Nicotine]	0.905	0.751	0.88	0.934	
O=C(c1ccccc1)C1CCCCC1 [Cyclohexylphenylketone]	0.926	0.954	1.01	1.26	
CCCOc1sc(C(=O)N2CCC(c3cc(CN)ccc3F)CC2)c(C)c1Br.Cl	0.999	1.19	0.874	0.755	
O=C(O)CC(O)C(=O)O (centres undefined) [Malic acid]	1.33	1.26	1.32	1.29	
CCCCN1C(=O)[C@@H]([C@H](O)C2CCCCC2)NC(=O)C12CCN(Cc1ccc(Oc3ccc(C(=O)O)cc3)cc1)CC2.Cl [Aplaviroc hydrochloride]				2.23	
Nc1ccccc1N [1,2-Phenylenediamine]	1.07	0.972	0.692	0.0666	
O=c1[nH]c2ccc(S(=O)CCN3CCC(Cc4ccc(F)cc4)CC3)cc2o1 (centres undefined) [Besonprodil]	0.825	0.844	0.693	0.564	
O=C(OCCCCCOC(=O)c1ccccc1)c1ccccc1 [Pentane-1,5-diyl dibenzoate]	0.301	0.223	0.206	0.386	
CC1CCC(NC(=O)N(CCCl)N=O)CC1 (centres undefined) [Semustine]	1.39	1.21	1.12	0.955	0.916
CCCCCCCC[Si](OCC)(OCC)OCC [Triethoxyoctylsilane]	0.912	0.893	0.948	1.09	
CC(C)(c1cc(Br)c(O)c(Br)c1)c1cc(Br)c(O)c(Br)c1 [3,3',5,5'-Tetrabromobisphenol A]	0.97	0.886	0.811	0.0562	
Nc1cccc(N)c1 [1,3-Benzenediamine]	1.19	1.05	1.19	1.74	
CCN(C(=O)c1cc(C)cc(OC[C@H](C)Nc2ccncc2)c1)C(C)C.Cc1ccc(S(=O)(=O)O)cc1	0.742	0.752	0.648	0.381	

Quoted from the listing.
O=C(O)c1cc(/N=N/c2ccc(S(=O)(=O)Nc3ccccn3)cc2)ccc1O [Sulfasalazine] | Renilla luciferase signal (concentration: 1 uM): 0.885
CCN(C(=O)c1cc(C)cc(OC[C@H](C)Nc2ccncc2)c1)C(C)C.Cc1ccc(S(=O)(=O)O)cc1 | Renilla luciferase signal (concentration: 1 uM): 0.752

Continued.

SMILES	Renilla luciferase signal (concentration: 0.1 uM)	Renilla luciferase signal (concentration: 1 uM)	Renilla luciferase signal (concentration: 10 uM)	Renilla luciferase signal (concentration: 100 uM)	Renilla luciferase signal (concentration: 0.01 uM)
C=C(C)C(N)=O [Methacrylamide]	1.03	1.12	1.11	1.2	
CC(C)=CCCC(C)CCO (centres undefined) [Citronellol]	1.04	1.11	1.11	1.38	
O=S1(=O)CCCO1 [1,3-Propane sultone]	1.1	1.1	1.09	1.54	
Cc1cccc(C)c1O [2,6-Dimethylphenol]	0.725	0.771	0.584	1.07	
CCOc1cccc(-n2cc(C(=O)N3CCN(c4cc(C(=O)[O-])c5ccccc5c4)CC3)nc2-c2ccc(C)cc2)c1.[Na+]	0.869	0.966	0.903	0.0785	
O=c1ccn(C2OC(COP(=O)(O)OP(=O)(O)OP(=O)(O)O)C(O)C2O)c(=O)[nH]1 (centres undefined)				2.08	
CC(=O)/C(C)=C/C1C(C)=CCCC1(C)C (stereo not drawn) [alpha-Isomethylionone]	0.734	0.712	0.76	1.3	
CC(C)=CCCC(C)=CC=O [3,7-Dimethyl-2,6-octadienal]	0.863	0.83	1.08	1.09	
CC(=O)OCCC(C)C [3-Methylbutyl acetate]	0.826	0.817	0.875	1.05	
CN(C)C=O [N,N-Dimethylformamide]	0.934	0.859	0.913	1.05	
O=C(O)CCN(C1(C(=O)NO)CCCC1)S(=O)(=O)c1ccc(Oc2ccc(F)cc2)cc1	0.951	0.927	1.02	1.47	
CC(C)(C)C(O)C(Cc1ccc(Cl)cc1)n1cncn1 (centres undefined) [Paclobutrazol]				1.62	
O=C1c2c(O)cccc2Cc2cccc(O)c21 [Anthralin]	1.1	0.951	0.986	0.834	
Cc1c(C)c2c(c(C)c1O)CCC(C)(CCCC(C)CCCC(C)CCCC(C)C)O2 (stereo not drawn) [Vitamin E (alpha-tocopherol)]	1.02	0.963	1.28	1.99	1.15
O.O=C1[N-]S(=O)(=O)c2ccccc21.[Na+] [Sodium saccharin hydrate]	1.05	1.15	1.35	1.71	
O=C(O)CN(CC(=O)O)CC(=O)O [Nitrilotriacetic acid]	0.952	1	1.15	1.37	
CN(C)C(=O)NC1(c2ccccc2)CCN(CC[C@@]2(c3ccc(F)c(F)c3)CN(C(=O)c3ccccc3)CCO2)CC1.Cl	0.958	1.12	0.963	0.0974	
CCCCCCCCCCCCc1ccccc1S(=O)(=O)O [Dodecylbenzenesulfonic acid]	0.733	0.796	0.72	0.358	
CCn1nc(Cc2ccccc2)cc1C1CCN(C[C@H]2C[C@H](N(C)[C@@H](C(=O)O)C(C)C)C[C@@H]2c2cccc(F)c2)CC1	0.87	0.89	0.671	0.298	
Oc1ccccc1O [Catechol]	0.854	0.923	0.714	0.0658	
